Measured values published in US20250276924A1, “CHEMICAL AND BIOLOGICAL DEGRADATION OF ETHER PER- AND POLYFLUOROALKYL SUBSTANCES” (The Regents of the University of California, priority 2024, published 2025).
Where a name gives a salt, the structure may show the parent alone. Some entries repeat one wording, which the source may state once for all of them.

What was measured:
[1] = tested on: activated sludge community; assay: Aerobic biotransformation and defluorination of ether PFAS in activated sludge batch reactors; conditions: for TFA formed from the compound / parent compound removal / removal of compound: aerobic incubation; for aerobic biotransformation / defluorination: incubation ≤28 days, result in words
[2] = tested on: activated sludge community; assay: Aerobic biological post-treatment of UV/sulfite effluent with activated sludge; conditions: for biotransformation of chemical treatment products: activated sludge, result in words
[3] = Internal recycle between the chemical and biological units; conditions: effluent of the biological unit returned to the chemical unit, result in words

With O=C(O)/C=C/C(F)(OC(F)(F)F)C(F)(F)F (stereo not drawn) [E12, 4,5,5,5-tetrafluoro-4-(trifluoromethoxy)pent-2-enoic acid] the “fluoride formed, assigned to one pathway” value ([1]; E12: conversion into TFA, TP273: further transformation of TP273) was 8 µM, the “amount hydrated at the C═C bond forming TP273” value ([1]; activated sludge) was 9 µM and the “amount that underwent two defluorinating pathways” value ([1]; activated sludge) was 11 µM. For the same compound, the “fluorine ions released per molecule of removed compound” value ([1]; activated sludge) was “up to four”, the “TFA formed from the compound” value ([1]; activated sludge) was “about 2 μM” and the parent compound removal ([1]; activated sludge) was 80%. The removal of compound ([1]; activated sludge) was 37 µM, the aerobic biotransformation ([1]; activated sludge) was “exhibited biotransformation” and the defluorination ([1]; activated sludge) was “exhibited biotransformation and defluorination”. The “amount of removed compound that underwent hydrogenation forming E11” value ([1]; within a week) was “about 26 μM”.

In the case of O=C(O)C(F)(F)F [TP142, trifluoroacetate], the “biotransformation of chemical treatment products” value [2] is reported as “nondefluorinating biotransformation”.

In the case of O=C(O)CC(F)(C(F)(F)F)C(F)(F)F [FTMePA, (CF3)2CFCH2COOH, reference compound], the aerobic biotransformation ([1]; activated sludge) is reported as “resistant to biotransformation” and the defluorination ([1]; activated sludge) is reported as “did not exhibit any defluorination”.

In the case of O=C(O)C=CC(F)(C(F)(F)F)C(F)(F)F [FTMeUPA, (CF3)2CFCH═CHCOOH, reference compound], the aerobic biotransformation ([1]; activated sludge) is reported as “underwent only hydrogenation” and the defluorination ([1]; activated sludge) is reported as “did not exhibit any defluorination”.

For O=C(O)COC(F)(F)C(F)(F)F [E7, 2-(perfluoroethoxy)acetic acid], the “TFA formed from the compound” value ([1]; activated sludge) was 37.2 µM, the removal of compound ([1]; activated sludge) was 37.9 µM and the “fluorine ions at the end of the incubation” value ([1]; activated sludge, end of incubation) was “approximately 67 μM”. For the same compound, the defluorination ([1]; activated sludge) was “defluorination was observed”.

In the case of O=C(O)C(F)(F)C(F)(F)F [TP162, 2,2,3,3,3-pentafluoropropanoic acid], the “fate during an internal recycle” value [3] is reported as “converted and mineralized”.

For sulfonated trifluoropropionate [TP206], the “biotransformation of chemical treatment products” value [2] was “nondefluorinating biotransformation”.

With O=C(O)COC(F)(F)F [E1, 2-(trifluoromethoxy)acetic acid] the parent compound removal ([1]; activated sludge) was 40.9%, the aerobic biotransformation ([1]; activated sludge) was “aerobic biotransformation was observed” and the defluorination ([1]; activated sludge) was “defluorination was observed”.

With O=C(O)C(F)OC(F)(F)F (stereo not drawn) [E2, 2-fluoro-2-(trifluoromethoxy)acetic acid] the aerobic biotransformation ([1]; activated sludge) was “did not exhibit notable parent compound decay” and the defluorination ([1]; activated sludge) was “did not exhibit notable parent compound decay or defluorination”.

With O=C(O)C(F)C(F)(F)F (stereo not drawn) [TP144, 2,3,3,3-tetrafluoropropanoic acid] the “fate during an internal recycle” value [3] was “converted and mineralized”.

With O=C(O)C(F)(F)C(F)(F)C(F)(F)OC(F)(F)F [E9, 2,2,3,3,4,4-hexafluoro-4-(trifluoromethoxy)butanoic acid] the aerobic biotransformation ([1]; activated sludge) was “did not show any biotransformation”.

For O=C(O)C(F)(OC(F)(F)C(F)(F)C(F)(F)F)C(F)(F)F (stereo not drawn) [E10, 2,3,3,3-tetrafluoro-2-(perfluoropropoxy)propanoic acid], the “additional defluorination / increase in total defluorination by aerobic biological post-treatment” value ([2]; time not stated) was “about 20%” and the aerobic biotransformation ([1]; activated sludge) was “did not show any biotransformation”.

With O=C(O)CCC(F)(OC(F)(F)F)C(F)(F)F (stereo not drawn) [E11, 4,5,5,5-tetrafluoro-4-(trifluoromethoxy)pentanoic acid] the parent compound removal ([1]; activated sludge) was 8%, the aerobic biotransformation ([1]; activated sludge) was “exhibited biotransformation” and the defluorination ([1]; activated sludge) was “exhibited biotransformation and defluorination”.
